In patent publication US20110059977A1 (priority 2006, published 2011):
≈ marks a conversion by molar mass, not a printed value.

Test system: M. tuberculosis H37Rv
Experiment: In vitro tests on Mycobacterium tuberculosis (MIC in 7H11 agar medium)
Details: 21-30 days at 37° C.

Q: With `CO[C@H]1/C=C/O[C@@]2(C)Oc3c(C)c(O)c4c(O)c(c(/C=N/N5CCN(C)CC5)c(O)c4c3C2=O)NC(=O)/C(C)=C\C=C\[C@H](C)[C@H](O)[C@@H](C)[C@@H](O)[C@@H](C)[C@H](OC(C)=O)[C@@H]1C` [rifampicin] as the compound, how does the “MIC on Mycobacterium tuberculosis” value read?
A: 0.1 µg/mL (≈ 0.122 µM)
